# In PubChem BioAssay AID504467 (National Center for Advancing Translational Sciences (NCATS), 2011):
# In all, about 330,000 compounds went through this assay and about 7,700 (2.3%) were called active. The shares of active, inactive and inconclusive entries below differ from those in the screen. Calls follow the shape of the dose curve; as a rule, active = well fitted inhibition curve with a large enough effect; inconclusive = small, poorly fitted or top-dose-only effect, or effect the other way; inactive = flat fitted curve, though single readings scatter. Potencies beside an inconclusive call are fits to weak or partial responses and may not hold up.
# Assay: qHTS screen for small molecules that inhibit ELG1-dependent DNA repair in human embryonic kidney (HEK293T) cells expressing luciferase-tagged ELG1; also: nearly all actives have a fitted effect of over 55% in size
# Settings: HEK293T ELG1-luciferase reporter, luminescence, 16 h, DNA damage induced by 5-fluorouridine; series mostly up to 46.1 µM
# In short: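 DMSO vehicle served as the neutral condition. Each well held 2,000 cells given 5-fluorouridine plus compound; after 16 hr at 37 °C/5% CO2, ONE-Glo was added and luciferase measured 30 min later.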
# Potency is read from the fitted curve at half-maximal effect.
row,Compound,Potency
1,CCc1ccccc1NC(=O)C1CCCN(S(=O)(=O)c2ccc3c(c2)CC(C)N3C(C)=O)C1 (centres undefined),"inconclusive: 29.1 µM [inhibitor, single point]"
2,COc1ccccc1Nc1nc(N)nc(CSC(=S)N2CCCCC2C)n1 (centres undefined),inactive
3,CCOC(=O)C1(Cc2ccccc2C)CCCN(Cc2ccc(NC(C)=O)cc2)C1 (centres undefined),"inconclusive: 20.6 µM [inhibitor, single point]"
4,O=C(Cc1coc(-c2ccc(F)cc2)n1)N1CCOCC1,"inconclusive: 0.0052 µM [inhibitor, full curve, poor fit]"
5,O=C(NCCN1CCOCC1)Nc1ccc(Cl)cc1,"inconclusive: 7.31 µM [activator, partial curve, poor fit]"
6,CCSc1nnc(NC(=O)CSc2nnc(CNC(=O)c3ccc(OC)c(OC)c3)o2)s1,"inconclusive: 13 µM [activator, partial curve, poor fit]"
7,O=C(Nc1ccccc1)c1ccc(S(=O)(=O)NCC2CCCO2)cc1 (centres undefined),"inconclusive: 8.2 µM [inhibitor, partial curve]"
8,Cc1ccc2[nH]c(-c3ccccc3)c(CN(C)C)c(=O)c2c1,inactive
9,O=C1NC(Cc2ccc(O)cc2)c2nc3ccc(Cl)cc3c(=O)n2-c2cc(Cl)ccc21 (centres undefined),"inconclusive: 29.1 µM [activator, single point]"
10,[O-]/C(=C(\C(=S)Nc1cccc2ccccc12)[n+]1cccc(CO)c1)c1ccc(Cl)s1,"inconclusive: 29.1 µM [activator, single point]"
11,COn1c(-c2ccc(Cl)cc2)nc2ncccc21,"inconclusive: 16.4 µM [activator, partial curve]"
12,O=C(NCCS(=O)(=O)NCc1ccccc1)c1ccc2c(c1)OCO2,inactive
13,CCSc1ccc(NC(=O)c2cccnc2)cc1,"inconclusive: 16.4 µM [activator, partial curve]"
14,O=C(NCCS(=O)(=O)N1CCN(c2ccc(F)cc2)CC1)c1ccco1,inactive
15,CN(C)c1ccc(CNC(=O)C2CCC(CNc3c(N4CCCCC4)c(=O)c3=O)CC2)cc1 (centres undefined),inactive
16,Cc1nc2cc(-c3cccc(F)c3)nn2c(C)c1CCC(=O)N1CCN(c2ccccn2)CC1,inactive
17,CCN1CCN(CCNC(=O)CCCCCn2c(=O)[nH]c3cc(C(=O)OC)ccc3c2=O)CC1,inactive
18,Nc1nc(NCc2ccco2)nc(N2CCN(Cc3ccccc3)CC2)c1[N+](=O)[O-],"inconclusive: 16.4 µM [inhibitor, partial curve]"
19,CCn1cc(S(=O)(=O)c2ccc(OC)cc2)c(=O)c2cc(F)c(N3CCN(C)CC3)cc21,"inconclusive: 11.6 µM [activator, partial curve]"
20,Cc1cc(C(=O)CN2C(=O)NC(CC(C)C)C2=O)c(C)n1C1CC1 (centres undefined),"inconclusive: 14.6 µM [activator, partial curve]"
21,CN(c1ccc(C(=O)Nc2cccc([N+](=O)[O-])c2)cc1)S(C)(=O)=O,"inconclusive: 16.4 µM [inhibitor, single point]"
22,Cc1ccc(Nc2c(-c3ccccc3)nc3cnccn23)cc1,inactive
23,O=C(/C=C/c1ccccc1)NCCOc1ccccc1,"inconclusive: 20.6 µM [activator, partial curve]"

row,Compound,Potency
1,Oc1cccc(-c2nc3c4c(ncn3n2)-c2ccccc2CC42CCCC2)c1,active: 8.2 µM
2,N=c1oc2ccccc2cc1-c1nc2ccccc2c(=O)[nH]1,"inconclusive: 4.61 µM [activator, full curve]"
3,CCCC(=O)Nc1nnc(S(=O)(=O)N2CCCCCC2)s1,inactive
4,O=C1CCCc2cc3c(cc21)CC1(C3)Cc2cc3c(cc2C1)C(=O)CCC3,active: 13 µM
5,COc1ccc(C)cc1NC(=O)c1nn(C)c(C(=O)Nc2cc(C)ccc2OC)c1[N+](=O)[O-],"inconclusive: 29.1 µM [inhibitor, single point]"
6,CCOc1ccc(/C=N/Nc2nncc(-c3ccccc3)n2)cc1OC,"inconclusive: 23.1 µM [inhibitor, single point]"
7,O=C(OCc1cc([N+](=O)[O-])cc2c1OCOC2)c1ccc2ccccc2n1,inactive
8,Cc1ccc(C2=NS(=O)(=O)N(C)C(C(=O)Nc3ccc(F)cc3F)=C2)cc1,inactive
9,O=S(=O)(c1ccccc1)c1nc(-c2ccccc2Cl)oc1NCCCN1CCOCC1,"inconclusive: 29.1 µM [inhibitor, single point]"
10,Cn1nnnc1SCCNCc1ccccc1OCc1ccccc1Cl,"inconclusive: 18.3 µM [inhibitor, single point]"
11,CCc1ccc(NC(=O)[C@@H](NC(=O)[C@@H]2Cc3ccccc3CN2)C(C)CC)cc1 (some centres undefined),"inconclusive: 16.4 µM [activator, single point]"
12,C=CCn1c(=S)[nH]c2scc(-c3cccs3)c2c1=O,"inconclusive: 1.46 µM [inhibitor, partial curve, poor fit]"
13,Cc1noc(C)c1C(=O)Nc1nc(-c2ccc(F)c(F)c2)cs1,inactive
14,COc1ccc(CCNC(=S)N2CCC(C(=O)c3ccc(F)cc3)CC2)cc1OC,active: 9.2 µM
15,CC(=O)N1CCC(C(=O)Nc2ccc(S(=O)(=O)N3CCCC(C)C3)cc2)CC1 (centres undefined),"inconclusive: 23.1 µM [inhibitor, single point]"
16,Cc1ccc(-c2cc(C(=O)NCc3cccnc3)no2)cc1,"inconclusive: 9.2 µM [activator, partial curve]"
17,N#Cc1nn(-c2ccccc2)nc1N1CCCCC1,"inconclusive: 25.9 µM [activator, single point]"
18,CCN(CC)S(=O)(=O)c1cccc(NC(=O)CNc2cccc(S(=O)(=O)N3CCCC3)c2)c1,active: 0.326 µM
19,Nc1nnnn1/N=C/c1cccc(OCc2ccccc2Cl)c1,"inconclusive: 16.4 µM [activator, partial curve, poor fit]"
20,Cc1cccc(-c2ccc3ncnc(NCc4cccnc4)c3c2)c1,inactive
21,O=C(COC(=O)c1ccc([N+](=O)[O-])cc1Cl)NCc1ccco1,"inconclusive: 35.5 µM [activator, single point]"
22,COc1ccc(NC(=O)c2cc3c(s2)CCC(C)C3)cc1S(=O)(=O)N1CCOCC1 (centres undefined),active: 23.1 µM
23,Cc1ccc(C)c2[nH]c(=O)c(CCNC(=O)c3cc4ccccc4o3)cc12,"inconclusive: 25.9 µM [inhibitor, single point]"

row,Compound,Potency
1,Cc1nc(SCC(=O)NCC2CCCO2)c2c3c(sc2n1)CCC3 (centres undefined),"inconclusive: 18.3 µM [inhibitor, single point]"
2,CCOC(=O)C(C)On1c(-c2cccc(Cl)c2)nc2ccc([N+](=O)[O-])cc21 (centres undefined),"inconclusive: 18.4 µM [inhibitor, single point]"
3,CCC(C)Nc1cc(C)nc2ncnn12 (centres undefined),"inconclusive: 20.6 µM [activator, partial curve, poor fit]"
4,COc1ccc(/C(N)=N/OC(=O)COc2ccccc2Cl)cc1,"inconclusive: 18.4 µM [activator, partial curve]"
5,Cc1ccc(/C=N/NC(=O)CSc2nnc(-c3ccc(Cl)cc3)n2-c2ccccc2)o1,"inconclusive: 23.1 µM [inhibitor, single point]"
6,COc1cc(NC(=O)c2n[nH]c(=O)c3ccccc23)cc(OC)c1,"inconclusive: 6.51 µM [activator, partial curve, poor fit]"
7,CCn1ccc(C(=O)Nc2ccccc2Cl)n1,"inconclusive: 8.2 µM [activator, partial curve]"
8,O=c1[nH]c(CN2CCN(S(=O)(=O)/C=C/c3ccccc3)CC2)nc2cc(Cl)ccc12,"inconclusive: 29.1 µM [inhibitor, single point]"
9,CCNC(=S)N/N=C(\C)c1cc2ccccc2o1,"inconclusive: 14.6 µM [activator, partial curve]"
10,CC(=O)Oc1ccc(-c2nc3c(C)cccc3c(=O)o2)cc1,"inconclusive: 12.6 µM [activator, single point]"
11,COc1ccccc1C(=O)COC(=O)c1cc([N+](=O)[O-])ccc1N1CCOCC1,"inconclusive: 29.1 µM [inhibitor, single point]"
12,CCCc1cc(N2CCOCC2)n2nc(C)c(-c3ccccc3)c2n1,"inconclusive: 29.1 µM [inhibitor, single point]"
13,CCc1ccc2nc(NC(=O)c3ccc(N4C(=O)CCC4=O)cc3)sc2c1,"inconclusive: 29.1 µM [activator, single point]"
14,FC(F)Sc1ccc(NC2=NCCCCC2)cc1,inactive
15,Cc1cc2nc3c(=O)n(C4CCCCC4)c(=O)[nH]c3nc2cc1N,"inconclusive: 20.6 µM [activator, partial curve]"
16,CCC(C)(C)C1CCC2(CC1)NC(=O)N(CC(=O)Nc1cc(C(F)(F)F)ccc1N1CCOCC1)C2=O (centres undefined),inactive
17,O=C(CN1CCCCCC1)Nc1ccc(Br)cc1,"inconclusive: 20.6 µM [activator, partial curve, poor fit]"
18,CCOC(=O)C1(CC/C(C)=N\NC(N)=O)CC(C)OC1=O (centres undefined),inactive
19,NC(=O)COC(=O)c1ccccc1Nc1ccc(SC(F)F)cc1,inactive
20,Cn1/c(=N/NC(=O)c2ccccc2Br)sc2ccccc21,"inconclusive: 20.6 µM [activator, partial curve]"
21,N#Cc1ccccc1OCC(=O)Nc1ccc2c(c1)OCCCO2,"inconclusive: 11.6 µM [activator, partial curve]"
22,COc1ccc(-c2cc(-c3nnc(-c4ccncc4)o3)c3ccccc3n2)cc1,"inconclusive: 4.11 µM [inhibitor, full curve]"
23,Cc1ccc(-c2cc(C(=O)N3CCOCC3)c3ccccc3n2)o1,"inconclusive: 8.2 µM [activator, partial curve, poor fit]"

# 20 entries from above, arranged by molecular weight, rising:
row,Compound,Potency
17,N#Cc1nn(-c2ccccc2)nc1N1CCCCC1,"inconclusive: 25.9 µM [activator, single point]"
11,COn1c(-c2ccc(Cl)cc2)nc2ncccc21,"inconclusive: 16.4 µM [activator, partial curve]"
4,O=C(Cc1coc(-c2ccc(F)cc2)n1)N1CCOCC1,"inconclusive: 0.0052 µM [inhibitor, full curve, poor fit]"
16,Cc1ccc(-c2cc(C(=O)NCc3cccnc3)no2)cc1,"inconclusive: 9.2 µM [activator, partial curve]"
18,CCOC(=O)C1(CC/C(C)=N\NC(N)=O)CC(C)OC1=O (centres undefined),inactive
17,O=C(CN1CCCCCC1)Nc1ccc(Br)cc1,"inconclusive: 20.6 µM [activator, partial curve, poor fit]"
21,N#Cc1ccccc1OCC(=O)Nc1ccc2c(c1)OCCCO2,"inconclusive: 11.6 µM [activator, partial curve]"
15,Cc1cc2nc3c(=O)n(C4CCCCC4)c(=O)[nH]c3nc2cc1N,"inconclusive: 20.6 µM [activator, partial curve]"
19,Nc1nnnn1/N=C/c1cccc(OCc2ccccc2Cl)c1,"inconclusive: 16.4 µM [activator, partial curve, poor fit]"
3,CCCC(=O)Nc1nnc(S(=O)(=O)N2CCCCCC2)s1,inactive
4,COc1ccc(/C(N)=N/OC(=O)COc2ccccc2Cl)cc1,"inconclusive: 18.4 µM [activator, partial curve]"
21,O=C(COC(=O)c1ccc([N+](=O)[O-])cc1Cl)NCc1ccco1,"inconclusive: 35.5 µM [activator, single point]"
21,CN(c1ccc(C(=O)Nc2cccc([N+](=O)[O-])c2)cc1)S(C)(=O)=O,"inconclusive: 16.4 µM [inhibitor, single point]"
23,Cc1ccc(C)c2[nH]c(=O)c(CCNC(=O)c3cc4ccccc4o3)cc12,"inconclusive: 25.9 µM [inhibitor, single point]"
12,O=C(NCCS(=O)(=O)NCc1ccccc1)c1ccc2c(c1)OCO2,inactive
14,O=C(NCCS(=O)(=O)N1CCN(c2ccc(F)cc2)CC1)c1ccco1,inactive
11,COc1ccccc1C(=O)COC(=O)c1cc([N+](=O)[O-])ccc1N1CCOCC1,"inconclusive: 29.1 µM [inhibitor, single point]"
14,COc1ccc(CCNC(=S)N2CCC(C(=O)c3ccc(F)cc3)CC2)cc1OC,active: 9.2 µM
5,Cc1ccc(/C=N/NC(=O)CSc2nnc(-c3ccc(Cl)cc3)n2-c2ccccc2)o1,"inconclusive: 23.1 µM [inhibitor, single point]"
16,Cc1nc2cc(-c3cccc(F)c3)nn2c(C)c1CCC(=O)N1CCN(c2ccccn2)CC1,inactive
